Consider 3 molecules from publication doi:10.1101/560391 (bioRxiv, 2019).

Assay in all cases: LacI/LacO tethering and co-recruitment in cells
The target of test [1] is T1, GFP-LacI-dCENP-C (Drosophila) (UniProt Q9VHP9).
T1 sequence: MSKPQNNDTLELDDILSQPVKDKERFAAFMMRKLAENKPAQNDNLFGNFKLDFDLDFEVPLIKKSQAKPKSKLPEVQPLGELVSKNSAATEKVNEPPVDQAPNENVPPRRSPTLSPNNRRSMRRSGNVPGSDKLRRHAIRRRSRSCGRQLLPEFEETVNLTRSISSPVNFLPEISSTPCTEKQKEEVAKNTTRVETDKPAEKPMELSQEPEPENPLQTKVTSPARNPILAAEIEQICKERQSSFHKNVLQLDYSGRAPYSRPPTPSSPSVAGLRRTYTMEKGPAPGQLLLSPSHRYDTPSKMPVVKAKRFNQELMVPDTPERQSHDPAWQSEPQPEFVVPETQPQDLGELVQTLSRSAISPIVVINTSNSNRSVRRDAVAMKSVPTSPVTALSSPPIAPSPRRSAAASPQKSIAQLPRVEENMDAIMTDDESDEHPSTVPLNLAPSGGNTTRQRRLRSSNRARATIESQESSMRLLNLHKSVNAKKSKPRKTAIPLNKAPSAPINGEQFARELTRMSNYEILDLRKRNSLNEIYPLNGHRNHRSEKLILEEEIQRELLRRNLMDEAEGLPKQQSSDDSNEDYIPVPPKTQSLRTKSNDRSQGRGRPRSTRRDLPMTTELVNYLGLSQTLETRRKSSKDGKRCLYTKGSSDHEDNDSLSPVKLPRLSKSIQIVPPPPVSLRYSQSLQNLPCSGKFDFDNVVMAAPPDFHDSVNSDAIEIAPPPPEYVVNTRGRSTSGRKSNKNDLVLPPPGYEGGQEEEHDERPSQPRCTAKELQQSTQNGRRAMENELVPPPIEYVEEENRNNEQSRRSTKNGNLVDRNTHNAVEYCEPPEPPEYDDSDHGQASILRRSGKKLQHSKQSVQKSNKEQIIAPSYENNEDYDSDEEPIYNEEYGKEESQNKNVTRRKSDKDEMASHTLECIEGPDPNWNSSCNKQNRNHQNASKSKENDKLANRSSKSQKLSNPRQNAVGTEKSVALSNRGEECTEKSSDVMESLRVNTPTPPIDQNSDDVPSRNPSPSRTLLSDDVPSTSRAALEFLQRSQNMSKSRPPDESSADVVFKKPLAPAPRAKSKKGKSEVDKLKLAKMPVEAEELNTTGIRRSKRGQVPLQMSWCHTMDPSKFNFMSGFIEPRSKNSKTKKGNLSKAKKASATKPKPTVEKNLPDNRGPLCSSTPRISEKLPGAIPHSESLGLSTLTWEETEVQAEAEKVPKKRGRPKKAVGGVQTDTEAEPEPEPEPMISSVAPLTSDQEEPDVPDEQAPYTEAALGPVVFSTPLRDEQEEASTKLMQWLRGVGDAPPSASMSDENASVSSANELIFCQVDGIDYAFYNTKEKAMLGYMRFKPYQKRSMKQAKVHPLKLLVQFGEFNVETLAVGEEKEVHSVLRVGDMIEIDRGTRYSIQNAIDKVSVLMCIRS

Test [2] concerns the target T2, GFP-LacI-dCENP-C(1009-1411) (Drosophila) (UniProt Q9VHP9).
T2 sequence: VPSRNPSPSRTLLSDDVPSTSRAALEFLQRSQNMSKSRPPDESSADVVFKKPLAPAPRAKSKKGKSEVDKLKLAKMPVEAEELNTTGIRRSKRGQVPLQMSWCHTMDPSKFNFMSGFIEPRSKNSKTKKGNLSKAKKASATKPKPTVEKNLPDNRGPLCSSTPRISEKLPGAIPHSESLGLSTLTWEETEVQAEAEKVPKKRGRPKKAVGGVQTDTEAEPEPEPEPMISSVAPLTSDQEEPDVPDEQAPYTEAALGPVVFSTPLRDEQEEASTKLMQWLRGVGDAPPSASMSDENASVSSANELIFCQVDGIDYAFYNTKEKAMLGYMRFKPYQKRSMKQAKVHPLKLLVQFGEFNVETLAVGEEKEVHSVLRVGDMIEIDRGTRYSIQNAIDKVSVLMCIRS

For test [3], the target named is dCENP-A-GFP-LacIw (Drosophila) (UniProt Q9V6Q2).
Test [4] concerns the target T3, CAL1-GFP-LacI (Drosophila), Q9VEN2.
T3 chain: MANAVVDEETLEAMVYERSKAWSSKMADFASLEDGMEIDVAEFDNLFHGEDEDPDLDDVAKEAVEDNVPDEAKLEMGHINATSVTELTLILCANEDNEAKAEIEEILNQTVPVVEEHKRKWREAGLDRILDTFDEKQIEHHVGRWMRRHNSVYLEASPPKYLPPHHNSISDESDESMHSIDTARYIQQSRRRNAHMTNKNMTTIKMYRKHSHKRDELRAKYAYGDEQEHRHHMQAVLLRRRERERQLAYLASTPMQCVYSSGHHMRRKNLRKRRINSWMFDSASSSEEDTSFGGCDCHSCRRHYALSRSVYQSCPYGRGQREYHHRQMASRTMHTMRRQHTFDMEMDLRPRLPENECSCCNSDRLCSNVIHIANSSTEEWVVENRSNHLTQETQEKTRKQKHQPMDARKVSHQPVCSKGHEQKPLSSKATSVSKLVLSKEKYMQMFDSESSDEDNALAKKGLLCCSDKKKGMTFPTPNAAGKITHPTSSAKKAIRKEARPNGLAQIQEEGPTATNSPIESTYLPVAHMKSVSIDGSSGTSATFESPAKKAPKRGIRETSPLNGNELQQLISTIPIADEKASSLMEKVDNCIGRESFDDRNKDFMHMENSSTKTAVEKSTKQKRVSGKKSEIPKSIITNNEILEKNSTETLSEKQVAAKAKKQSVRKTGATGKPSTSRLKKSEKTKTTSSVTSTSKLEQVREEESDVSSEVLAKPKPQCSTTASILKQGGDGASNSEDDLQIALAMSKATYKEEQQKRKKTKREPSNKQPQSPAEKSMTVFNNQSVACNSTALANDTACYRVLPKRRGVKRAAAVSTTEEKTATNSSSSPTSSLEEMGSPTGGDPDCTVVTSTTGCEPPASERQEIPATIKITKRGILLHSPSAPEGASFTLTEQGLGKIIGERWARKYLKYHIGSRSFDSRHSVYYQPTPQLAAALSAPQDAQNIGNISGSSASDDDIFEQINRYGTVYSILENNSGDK
The conditions noted are these: remark: other sources report otherwise.

Test [5] deals with T4, dCENP-A (Drosophila), Q9V6Q2.
T4 chain: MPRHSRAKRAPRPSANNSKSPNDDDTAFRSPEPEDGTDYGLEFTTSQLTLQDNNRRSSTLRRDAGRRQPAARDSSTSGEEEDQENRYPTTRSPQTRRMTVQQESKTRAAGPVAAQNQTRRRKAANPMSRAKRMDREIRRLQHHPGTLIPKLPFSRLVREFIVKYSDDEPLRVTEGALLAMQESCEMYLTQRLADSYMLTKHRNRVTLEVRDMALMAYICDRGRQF
The conditions noted are these: remark: other sources report otherwise.

No constants are given. Whether binding was seen depends on the method and setting. Some binding calls cover weakened binding; strength is not graded here. For some assays here: Where a sequence is shown, tags or fusion partners need not be part of it.

In the case of CAL1-HA (from UniProt Q9VEN2 1-979), the binding entry in test [1], in test [2] and in test [3] was “binds” each time.

B1: CAL1-HA, Q9VEN2 1-979 (protein)
chain: MANAVVDEETLEAMVYERSKAWSSKMADFASLEDGMEIDVAEFDNLFHGEDEDPDLDDVAKEAVEDNVPDEAKLEMGHINATSVTELTLILCANEDNEAKAEIEEILNQTVPVVEEHKRKWREAGLDRILDTFDEKQIEHHVGRWMRRHNSVYLEASPPKYLPPHHNSISDESDESMHSIDTARYIQQSRRRNAHMTNKNMTTIKMYRKHSHKRDELRAKYAYGDEQEHRHHMQAVLLRRRERERQLAYLASTPMQCVYSSGHHMRRKNLRKRRINSWMFDSASSSEEDTSFGGCDCHSCRRHYALSRSVYQSCPYGRGQREYHHRQMASRTMHTMRRQHTFDMEMDLRPRLPENECSCCNSDRLCSNVIHIANSSTEEWVVENRSNHLTQETQEKTRKQKHQPMDARKVSHQPVCSKGHEQKPLSSKATSVSKLVLSKEKYMQMFDSESSDEDNALAKKGLLCCSDKKKGMTFPTPNAAGKITHPTSSAKKAIRKEARPNGLAQIQEEGPTATNSPIESTYLPVAHMKSVSIDGSSGTSATFESPAKKAPKRGIRETSPLNGNELQQLISTIPIADEKASSLMEKVDNCIGRESFDDRNKDFMHMENSSTKTAVEKSTKQKRVSGKKSEIPKSIITNNEILEKNSTETLSEKQVAAKAKKQSVRKTGATGKPSTSRLKKSEKTKTTSSVTSTSKLEQVREEESDVSSEVLAKPKPQCSTTASILKQGGDGASNSEDDLQIALAMSKATYKEEQQKRKKTKREPSNKQPQSPAEKSMTVFNNQSVACNSTALANDTACYRVLPKRRGVKRAAAVSTTEEKTATNSSSSPTSSLEEMGSPTGGDPDCTVVTSTTGCEPPASERQEIPATIKITKRGILLHSPSAPEGASFTLTEQGLGKIIGERWARKYLKYHIGSRSFDSRHSVYYQPTPQLAAALSAPQDAQNIGNISGSSASDDDIFEQINRYGTVYSILENNSGDK
Turning to B1, the binding result in test [4] is “binds”.

B2: GFP-LacIw-dCENP-C, Q9VHP9 1-1411 (protein)
chain: MSKPQNNDTLELDDILSQPVKDKERFAAFMMRKLAENKPAQNDNLFGNFKLDFDLDFEVPLIKKSQAKPKSKLPEVQPLGELVSKNSAATEKVNEPPVDQAPNENVPPRRSPTLSPNNRRSMRRSGNVPGSDKLRRHAIRRRSRSCGRQLLPEFEETVNLTRSISSPVNFLPEISSTPCTEKQKEEVAKNTTRVETDKPAEKPMELSQEPEPENPLQTKVTSPARNPILAAEIEQICKERQSSFHKNVLQLDYSGRAPYSRPPTPSSPSVAGLRRTYTMEKGPAPGQLLLSPSHRYDTPSKMPVVKAKRFNQELMVPDTPERQSHDPAWQSEPQPEFVVPETQPQDLGELVQTLSRSAISPIVVINTSNSNRSVRRDAVAMKSVPTSPVTALSSPPIAPSPRRSAAASPQKSIAQLPRVEENMDAIMTDDESDEHPSTVPLNLAPSGGNTTRQRRLRSSNRARATIESQESSMRLLNLHKSVNAKKSKPRKTAIPLNKAPSAPINGEQFARELTRMSNYEILDLRKRNSLNEIYPLNGHRNHRSEKLILEEEIQRELLRRNLMDEAEGLPKQQSSDDSNEDYIPVPPKTQSLRTKSNDRSQGRGRPRSTRRDLPMTTELVNYLGLSQTLETRRKSSKDGKRCLYTKGSSDHEDNDSLSPVKLPRLSKSIQIVPPPPVSLRYSQSLQNLPCSGKFDFDNVVMAAPPDFHDSVNSDAIEIAPPPPEYVVNTRGRSTSGRKSNKNDLVLPPPGYEGGQEEEHDERPSQPRCTAKELQQSTQNGRRAMENELVPPPIEYVEEENRNNEQSRRSTKNGNLVDRNTHNAVEYCEPPEPPEYDDSDHGQASILRRSGKKLQHSKQSVQKSNKEQIIAPSYENNEDYDSDEEPIYNEEYGKEESQNKNVTRRKSDKDEMASHTLECIEGPDPNWNSSCNKQNRNHQNASKSKENDKLANRSSKSQKLSNPRQNAVGTEKSVALSNRGEECTEKSSDVMESLRVNTPTPPIDQNSDDVPSRNPSPSRTLLSDDVPSTSRAALEFLQRSQNMSKSRPPDESSADVVFKKPLAPAPRAKSKKGKSEVDKLKLAKMPVEAEELNTTGIRRSKRGQVPLQMSWCHTMDPSKFNFMSGFIEPRSKNSKTKKGNLSKAKKASATKPKPTVEKNLPDNRGPLCSSTPRISEKLPGAIPHSESLGLSTLTWEETEVQAEAEKVPKKRGRPKKAVGGVQTDTEAEPEPEPEPMISSVAPLTSDQEEPDVPDEQAPYTEAALGPVVFSTPLRDEQEEASTKLMQWLRGVGDAPPSASMSDENASVSSANELIFCQVDGIDYAFYNTKEKAMLGYMRFKPYQKRSMKQAKVHPLKLLVQFGEFNVETLAVGEEKEVHSVLRVGDMIEIDRGTRYSIQNAIDKVSVLMCIRS
For B2, in test [5], the binding entry was “binds”.
